In PubChem BioAssay AID2685 (National Center for Advancing Translational Sciences (NCATS), 2010):
The list shows a part of the results. Shown are side measurements of this screen, not its main read-out; they come without a call. The list favours compounds with an active or inconclusive main result. Words in brackets tell the shape of the fitted curve; partial curves, single points and poor fits give uncertain potencies.

Assay: qHTS Assay for Lipid Storage Modulators in Drosophila S3 Cells;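 on cell number change: cells counted by Cell Tracker Red CMTPX staining in the red channel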
Conditions: BODIPY lipid droplet fluorescence, 18-24 h; for cell number change: measured here: cell count max response, cells fed with added oleic acid
Procedure, shortened: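 Laser-scanning cytometry quantifies lipid droplet accumulation (500–530 nm total intensity; droplet/cell object ratio) in oleic acid-fed (400 uM added) Drosophila S3 cells treated with a concentration series. 20 uM Triacsin C defined 100% inhibition.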

[1] = measured here: cell number channel AC50, cells fed with added oleic acid
[2] = measured here: lipid fluorescence (Fed channel) AC50, cells fed with added oleic acid

SMILES	cell number change	AC50 [1]	AC50 [2]
FC(F)(F)c1cnc(Sc2nnc(-c3cccs3)n2CC2CCCO2)c(Cl)c1 (stereo not given)	32.1%	0.206 µM [rising, full curve, poor fit]	
O=C(CCc1ccccc1)NNC(=O)COc1ccccc1	38.2%	16.4 µM [rising, single point]	
O=C(Cn1nnc(-c2ccccc2NC(=O)c2ccccc2F)n1)NCc1ccco1	-3.72%		4.61 µM [rising, single point]
CCNC(=O)NC(=O)C(C)Sc1ccc2c(c1)OCCO2 (stereo not given)	-42.6%	0.58 µM [falling, partial curve, poor fit]	
CCOc1ccc(NC(=O)c2ccc(Br)o2)c([N+](=O)[O-])c1	-27.4%		9.2 µM [falling, partial curve, poor fit]
O=C(Cc1ccccc1F)Nc1ccc2c(c1)CCC2	11.5%		
O=C(c1ccccc1Br)N1N=C(c2ccccc2)CC1c1ccccc1F (stereo not given)	49.3%	3.26 µM [rising, full curve, poor fit]	4.11 µM [rising, full curve]
C=CCN(c1ccccc1)S(=O)(=O)c1ccc(Cl)c(C(=O)OCC(=O)c2[nH]c(C)c(C(C)=O)c2C)c1	-27.2%	6.51 µM [rising, single point]	6.51 µM [rising, partial curve]
CC(C)Cc1nc2n[nH]c(N)c2c2c1COC(C)(C)C2			0.116 µM [rising, full curve, poor fit]
CCc1ccc(OCC(=O)N2CCc3ccccc32)cc1	6.67%		29.1 µM [rising, single point]
CC(C)Cc1ccc(C(=O)Nc2ccc(Cc3ccncc3)cc2)o1	-32.7%	29.1 µM [falling, single point]	
O=C(CNC(=O)c1cccs1)OCC(=O)c1ccccc1Cl	88.9%	18.4 µM [rising, single point]	
COCCN(CCOC)C(=O)COC(=O)c1cc([N+](=O)[O-])ccc1Cl	36.8%		5.8 µM [rising, partial curve, poor fit]
CCOC(=O)c1ccc(C(=O)NNC(=O)C2C3C=CC(C3)C2C(=O)O)cc1 (stereo not given)	9.35%		5.8 µM [rising, single point]
Cc1ccc(-n2cccc2/C=C2/NC(=O)N(CC(=O)Nc3cccc(C)c3)C2=O)cc1	9.15%		
COc1ccc(N2CCN(C(=O)CNC(=O)Cc3ccccc3)CC2)cc1	2.21%		29.1 µM [falling, single point]
CCOc1cc(N2CCOCC2)c(OCC)cc1NC(=O)c1cc(C)cc(C)c1	-13.3%		
Cc1ccc(S(=O)(=O)N2[C@@H](c3ccc(F)cc3)C(C(=O)O)=CC[C@H]2c2ccc3c(c2)OCO3)cc1	-22.7%		16.4 µM [rising, partial curve, poor fit]
CCOC(=O)N1CCN(C(=O)Nc2cccc(Cl)c2)CC1	13.7%	2.06 µM [rising, single point]	
COc1ccc(C(=O)NC(=S)Nc2cc(C)ccn2)cc1[N+](=O)[O-]		0.517 µM [rising, full curve]	2.91 µM [rising, full curve]
CC(C)(C)c1ccc(O)c(N=Cc2cc3c(cc2[N+](=O)[O-])OCO3)c1	6.2%		29.1 µM [falling, single point]

SMILES	cell number change	AC50 [1]	AC50 [2]
Cc1noc(C)c1COc1cccc(C(=O)OCC(=O)NC(=O)c2ccc(OC(F)F)cc2)c1	-22.6%		0.651 µM [falling, partial curve]
CN(C)S(=O)(=O)c1ccc(C(=O)Nc2cccnc2)cc1	24.2%		29.1 µM [falling, single point]
CN(C(=O)c1ccccc1C(=O)OCC(=O)NC(=O)NC(C)(C)C)C1CCCCC1			4.61 µM [falling, single point]
CSCCC(NC(=O)c1ccc(Cl)cc1)C(=O)OCC(=O)c1ccc[nH]1 (stereo not given)	3.95%		7.31 µM [rising, partial curve, poor fit]
O=C(COc1ccc(-c2nnco2)cc1)N1CCN(S(=O)(=O)c2ccccc2)CC1	5.67%		1.46 µM [rising, partial curve]
CCCCNC(=O)O[C@H]1C[C@@H]2CCN3C(=O)CCC(C)(C)[C@H](C1)[C@H]23	-10.8%		20.6 µM [falling, single point]
CCSc1nnc(-c2ccncc2)n1Cc1ccccc1	38.7%		0.92 µM [rising, partial curve]
Cc1cc(NCCCn2ccnc2)n2ncc(-c3ccccc3)c2n1	66.2%	29.1 µM [rising, partial curve, poor fit]	0.58 µM [rising, partial curve]
CC(C)c1cc(N2CCC(=O)NC2=O)cc(C(=O)O)c1O	-3.67%	0.082 µM [rising, full curve, poor fit]	0.0731 µM [rising, full curve, poor fit]
Cc1c(OCC(N)=O)ccc2c(-c3ccccc3)cc(=O)oc12	13.3%		6.51 µM [falling, single point]
CN(C)C(=O)Cn1cnc2c(cnn2-c2ccccc2Cl)c1=O	13.4%		5.17 µM [falling, single point]
Cc1ccc(-n2c(-c3ccc(Br)cc3)c[n+]3c2CCc2ccc4cccnc4c2-3)cc1	-85.2%	2.31 µM [falling, full curve]	0.731 µM [falling, full curve]
CN1CCN(CC(=O)Nc2c(C(=O)c3ccccc3)oc3ccccc23)CC1	34.9%	0.731 µM [rising, full curve, poor fit]	
COc1ccc(-c2cc(C(=O)N3CCN(c4ccc(F)cc4)CC3)no2)cc1	22.1%		11.6 µM [falling, single point]
CCN1CCN(CC(O)COc2ccc(C(C)=O)cc2)CC1 (stereo not given)	20%		
O=C(CSCc1ccccc1)Nc1cccc(C(=O)Nc2ccccc2C(=O)O)c1	17.6%		
CC(Sc1nnc(-c2cccnc2)o1)C(=O)NC1CCCC1 (stereo not given)	4.9%		23.1 µM [rising, partial curve]
Cc1ccc(NC(=O)C2CCN(S(=O)(=O)c3ccc4c(c3)NC(=O)C(C)S4)CC2)cc1C (stereo not given)	-5.66%		6.51 µM [falling, single point]
CCOCCCNC(=O)c1cc(=O)n(Cc2cccc(C)c2)c2ccccc12	117%	29.1 µM [rising, single point]	
CCCCc1ccc(CC(=O)O)cc1	4.03%		
Cc1nn(C(C)C(=O)c2cccc(Cl)c2)c(C)c1[N+](=O)[O-] (stereo not given)	-14.8%		

Look-ups from the results shown:
CC(C)c1cc(N2CCC(=O)NC2=O)cc(C(=O)O)c1O | AC50 [1]: 0.082 µM [rising, full curve, poor fit]
CC(Sc1nnc(-c2cccnc2)o1)C(=O)NC1CCCC1 (stereo not given) | AC50 [2]: 23.1 µM [rising, partial curve]
COc1ccc(-c2cc(C(=O)N3CCN(c4ccc(F)cc4)CC3)no2)cc1 | cell number change: 22.1%

(list continues)

SMILES	cell number change	AC50 [1]	AC50 [2]
Cc1cccc(N(Cc2ccccc2)C(=O)c2ccc(F)c(S(=O)(=O)N3CCOCC3)c2)c1	41.8%	2.91 µM [rising, partial curve]	
CC(C)(C)NC(=O)COC(=O)/C=C/c1ccccc1[N+](=O)[O-]	-8.41%	1.64 µM [falling, partial curve]	0.13 µM [falling, full curve, poor fit]
CN(C)c1nc(N)nc(CSc2n[nH]c(-c3ccccc3)n2)n1	14.2%		6.51 µM [rising, single point]
N#Cc1nc(COc2ccc(Cl)cc2)oc1N1CCCC1			2.06 µM [falling, full curve]
Cc1ccc(OC(C)C(=O)N2CCCc3ccccc32)cc1 (stereo not given)	14.2%		
Cc1cccc(-n2c(SCc3ccc(C#N)cc3)nnc2-c2c[nH]c3ccccc23)c1			0.116 µM [falling, full curve, poor fit]
Cc1cc(C(=O)OCC(=O)NCc2cccs2)c2ccccc2n1	-22.5%	6.51 µM [rising, partial curve, poor fit]	
COc1cccc2[nH]c3c(N4CCCC(C)C4)ncnc3c12 (stereo not given)	-15.9%		0.82 µM [rising, single point]
CC(=O)OC1CC[C@@]2(C)C(CCC3C2CC(=O)[C@@]2(C)C3CC3CC(C)=CC(=O)C32)C1 (stereo not given in full)	7.18%		
Cc1ccc(C(=O)N/N=C/c2nc3ccccc3n2C)cc1	6.24%		
COC(=O)c1cc(Br)c(=O)n(CCN2CCCCC2)c1	1.23%		0.0058 µM [falling, full curve, poor fit]
COc1ccc(N2CCN(C(CNS(C)(=O)=O)c3ccco3)CC2)cc1 (stereo not given)	-29.3%	4.61 µM [falling, full curve, poor fit]	
O=C(/C=C/c1ccco1)N(Cc1cccc(Br)c1)C1CCS(=O)(=O)C1 (stereo not given)		0.731 µM [rising, single point]	
N#Cc1ccccc1NC(=O)CSc1nnc(-c2ccc(F)cc2)n1-c1ccccc1	24.4%	2.06 µM [rising, full curve, poor fit]	
CCc1nc2ccccc2n(CCOCCOCCn2c(=O)c(CC)nc3ccccc32)c1=O	4%		4.61 µM [rising, full curve]
O=C(Nc1cccc(Br)c1)c1ccc2c(c1)SC1=NS(=O)(=O)CCN12	-8.71%		2.31 µM [falling, single point]
COC(=O)c1nn(-c2ccccc2)c(=O)cc1Sc1ccc(Cl)cc1	6.26%		
CN(c1ccccc1)c1nc(N)c([N+](=O)[O-])c(N2CCCC2)n1	13.9%		
O=C(NCCc1ccccc1)N1c2ccccc2Sc2ccccc21	62.5%	1.03 µM [rising, partial curve]	2.91 µM [rising, single point]
Cc1cc(C)c(C)c(S(=O)(=O)N2CCC(C(=O)NCCCN3CCOCC3)CC2)c1C	12.8%	0.0058 µM [falling, full curve, poor fit]	0.411 µM [rising, full curve, poor fit]
